Experimental data from article PMC7449927.
Results are given in words; binding and its absence hold for the method and conditions named. In cells and extracts the contact can be indirect. Some entries that bind do so weakly or less than the wild type.

Target: T1, O-GlcNAc transferase (OGT) (human (endogenous in HCC cells)) (UniProt O15294)
T1 sequence: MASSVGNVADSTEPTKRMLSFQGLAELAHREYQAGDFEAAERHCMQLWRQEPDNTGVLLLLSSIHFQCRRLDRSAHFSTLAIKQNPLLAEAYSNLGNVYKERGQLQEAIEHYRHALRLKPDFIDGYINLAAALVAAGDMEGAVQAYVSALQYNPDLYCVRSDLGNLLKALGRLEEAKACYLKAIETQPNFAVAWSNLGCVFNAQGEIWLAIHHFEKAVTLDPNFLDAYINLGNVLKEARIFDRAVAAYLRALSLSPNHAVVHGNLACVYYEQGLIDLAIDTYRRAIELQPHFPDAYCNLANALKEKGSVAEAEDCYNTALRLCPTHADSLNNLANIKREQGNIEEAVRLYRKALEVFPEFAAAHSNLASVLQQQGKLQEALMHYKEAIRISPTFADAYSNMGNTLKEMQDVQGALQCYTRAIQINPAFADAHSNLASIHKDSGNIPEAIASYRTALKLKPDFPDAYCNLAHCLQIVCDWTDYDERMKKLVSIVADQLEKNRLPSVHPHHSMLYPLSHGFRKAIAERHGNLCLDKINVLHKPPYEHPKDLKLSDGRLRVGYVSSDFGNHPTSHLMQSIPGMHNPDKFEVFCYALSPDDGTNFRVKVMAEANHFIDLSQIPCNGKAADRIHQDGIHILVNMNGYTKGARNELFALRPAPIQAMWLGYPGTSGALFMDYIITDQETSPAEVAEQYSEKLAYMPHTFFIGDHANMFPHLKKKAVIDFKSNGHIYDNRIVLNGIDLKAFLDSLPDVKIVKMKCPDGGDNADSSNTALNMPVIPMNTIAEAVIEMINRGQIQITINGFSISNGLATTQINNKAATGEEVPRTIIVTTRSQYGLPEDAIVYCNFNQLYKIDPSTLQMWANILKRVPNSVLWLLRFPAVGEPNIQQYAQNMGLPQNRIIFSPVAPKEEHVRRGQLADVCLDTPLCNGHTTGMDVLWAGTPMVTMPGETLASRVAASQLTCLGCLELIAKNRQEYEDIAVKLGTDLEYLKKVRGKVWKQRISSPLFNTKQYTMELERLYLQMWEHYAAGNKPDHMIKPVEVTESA
Experiment: co-IP; endogenous proteins in HCC cell lysate (IP lysis buffer, sonicated); IP with anti-OGT, blot anti-SIX1, and the reverse (IP anti-SIX1, blot anti-OGT); magnetic beads, 4 °C overnight, PBS washes

B1: Sine oculis homeobox homolog 1 (SIX1) (protein, UniProt Q15475 1-284)
chain: MSMLPSFGFTQEQVACVCEVLQQGGNLERLGRFLWSLPACDHLHKNESVLKAKAVVAFHRGNFRELYKILESHQFSPHNHPKLQQLWLKAHYVEAEKLRGRPLGAVGKYRVRRKFPLPRTIWDGEETSYCFKEKSRGVLREWYAHNPYPSPREKRELAEATGLTTTQVSNWFKNRRQRDRAAEAKERENTENNNSSSNKQNQLSPLEGGKPLMSSSEEEFSPPQSPDQNSVLLLQGNMGHARSSNYSLPGLTASQPSHGLQTHQHQLQDSLLGPLTSSLVDLGS
binding: binds
